Reference: PubChem BioAssay AID1224829 (NIAID, 2016)
Aim: 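Secondary check of hits that alter LPS-induced p65 translocation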 (follow-up of hits). System: mouse RAW264.7 G9 macrophage reporter cells. Knock-down reagent: single siRNA against mouse genes, 100 nM. Time to read-out: 2 days of siRNA knock-down, then 40 min of LPS before fixing. Challenge: LPS (Salmonella minnesota R595) at 10 ng/ml. Detection: 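Imaging of GFP-p65 after 40 min of LPS; nuclear over perinuclear ring intensity ratio, scaled to plate median and non-targeting control wells, given as z-score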. Reading the numbers: p65 translocation z-score and gene median z-score, per vendor: higher = more nuclear NF-kappaB p65 after LPS. Active means: 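Active means the replicate-mean z-score lies beyond plus or minus 2, in either direction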. Calls: active = changed p65 translocation (either direction); inactive = no clear change.
The whole screen tested about 3,800 reagents; this is a random part of them. 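Calls cover raised and lowered translocation; gene median uses one vendor's three siRNAs; qiagen siRNAs acted more weakly than ambion siRNAs.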 A number with no mark means an inactive call. The numbers tell different reagents against one gene apart. No sequences are given here.

target gene	siRNA no.	siRNA vendor or control pool	p65 translocation z-score, replicate mean	p65 translocation z-score, replicate 1	p65 translocation z-score, replicate 2	gene median z-score, per vendor
Hus1	1	ambion single siRNA	0.344	-0.508	1.2	0.518
Hus1	2	ambion single siRNA	0.35	0.518	0.183	0.518
Hus1	3	ambion single siRNA	1.38	1.38		0.518
Hus1	4	qiagen single siRNA	3.13 (active)	2.64	3.61	0.95
Hus1	5	qiagen single siRNA	-0.0732	0.878	-1.02	0.95
Hus1	6	qiagen single siRNA	0.554	1.02	0.087	0.95
Cct8l1	1	ambion single siRNA	-1.11	-0.375	-1.85	-2.54
Cct8l1	2	ambion single siRNA	-1.94	-0.638	-3.23	-2.54
Cct8l1	3	ambion single siRNA	-3.56 (active)	-3.87	-3.26	-2.54
Cct8l1	4	qiagen single siRNA	0.17	0.349	-0.0101	0.435
Cct8l1	5	qiagen single siRNA	0.0277	-0.834	0.89	0.435
Cct8l1	6	qiagen single siRNA	0.533	0.545	0.52	0.435
Sdk1	1	ambion single siRNA	-1.33	-0.885	-1.77	-2.32
Sdk1	2	ambion single siRNA	-3.64 (active)	-3.11	-4.18	-2.32
Sdk1	3	ambion single siRNA	-2.32 (active)	-2.6	-2.03	-2.32
Sdk1	4	qiagen single siRNA	-1.46	-0.766	-2.16	-3.26
Sdk1	5	qiagen single siRNA	-6.22 (active)	-6.22		-3.26
Sdk1	6	qiagen single siRNA	-4.41 (active)	-3.26	-5.56	-3.26
Il1r1	1	ambion single siRNA	-0.547	-0.71	-0.384	-1.37
Il1r1	2	ambion single siRNA	-9.3 (active)	-9.3		-1.37
Il1r1	3	ambion single siRNA	-1.65	-1.93	-1.37	-1.37
Il1r1	4	qiagen single siRNA	1.18	-0.139	2.5	0.359
Il1r1	5	qiagen single siRNA	1.84	0.359	3.32	0.359
Il1r1	6	qiagen single siRNA	-0.294	-0.294		0.359
Dynlrb2	1	ambion single siRNA	-1	-1.34	-0.663	-3.07
Dynlrb2	2	ambion single siRNA	-4.15 (active)	-4.28	-4.02	-3.07
Dynlrb2	3	ambion single siRNA	-3.07 (active)	-3.74	-2.39	-3.07
Dynlrb2	4	qiagen single siRNA	1.34	0.597	2.09	-0.047
Dynlrb2	5	qiagen single siRNA	-0.047	-0.024	-0.0699	-0.047
Dynlrb2	6	qiagen single siRNA	-2.63 (active)	-2.23	-3.02	-0.047
Polr2b	1	ambion single siRNA	0.404	1.28	-0.472	0.571
Polr2b	2	ambion single siRNA	1.93	2.79	1.08	0.571
Polr2b	3	ambion single siRNA	-0.465	0.0576	-0.988	0.571
Polr2b	4	qiagen single siRNA	-2.17 (active)	-1.28	-3.07	-3
Polr2b	5	qiagen single siRNA	-3.54 (active)	-1.8	-5.27	-3
Polr2b	6	qiagen single siRNA	-3.51 (active)	-2.93	-4.1	-3

Quoted from above, 4 entries:
target gene	siRNA no.	siRNA vendor or control pool	p65 translocation z-score, replicate mean	p65 translocation z-score, replicate 1	p65 translocation z-score, replicate 2	gene median z-score, per vendor
Sdk1	1	ambion single siRNA	-1.33	-0.885	-1.77	-2.32
Sdk1	2	ambion single siRNA	-3.64 (active)	-3.11	-4.18	-2.32
Sdk1	3	ambion single siRNA	-2.32 (active)	-2.6	-2.03	-2.32
Sdk1	4	qiagen single siRNA	-1.46	-0.766	-2.16	-3.26
